Laboratory results: patent publication US20250353875 (published 2025)

Test: general procedure: Fmoc solid-phase peptide synthesis
Conditions: late stage modification step

Substance	step yield
Fmoc-Ile-MeGly-Aze (2)-MeCha-MeGly-Asp (OMe)-pip	83%
Fmoc-Thr (tBu)-MeAla-Cys (StBu)-Phe-Asp (OMe)-pip	82%
